# Measured values reported in patent US9464128B2 (INSTITUTE OF PHARMACOLOGY AND TOXICOLOGY ACADEMY OF …, priority 2007, dated 2016).
# Experiment: general procedure: Fmoc solid-phase peptide synthesis; MBHA resin; DCC-HOBt
# Settings: whole synthesis, scale 0.12 mmol
substance,measurement,value
"[D-Ala^1,Cys^7,D-Ala^30]sCT",crude mass,400 mg
